This is one part of the list. Shown are side measurements of this screen, not its main read-out; they come without a call. The list favours compounds with an active or inconclusive main result. The note in brackets gives the kind of curve behind each potency; many fits are weak.
Assay: qHTS Assay for Lipid Storage Modulators in Drosophila S3 Cells;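 for cell number change: cells counted by Cell Tracker Red CMTPX staining in the red channel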
Conditions: BODIPY lipid droplet fluorescence, 18-24 h; for cell number change: measured here: cell count max response, cells fed with added oleic acid
Outline: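 Drosophila S3 cells loaded with oleic acid (400 uM, as added) and compounds at several concentrations; lipid droplets imaged by 488-nm laser-scanning cytometry, 500–530 nm intensity and object ratio to cell channel. Percent activity normalized to 20 uM Triacsin C.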

[1] = measured here: cell number channel AC50, cells fed with added oleic acid
[2] = measured here: lipid fluorescence (Fed channel) AC50, cells fed with added oleic acid

Compound | cell number change [%] | AC50 [1] | AC50 [2]
CN(C(=O)CSC1=NC2C(N=N1)c1cc(Br)ccc1N2C)C1CCCCC1 (configuration not stated) | -8.98 |  | 
Cc1cc(=O)cc(C)n1-c1ccc(Cl)cc1 | 173 | 16400 nM [rising, partial curve] | 
CC1Cc2cccc3c(O)c(C(=O)c4nn[nH]n4)c(=O)n1c23 (configuration not stated) | -0.79 | 103 nM [falling, single point] | 326 nM [falling, full curve, poor fit]
CCOc1ccc(C)cc1S(=O)(=O)Nc1ccc(Cl)cn1 | 56.7 | 731 nM [rising, full curve] | 20600 nM [rising, partial curve]
O=C(Nc1ccc(F)cc1F)c1cccnc1 | 9.03 | 103 nM [rising, full curve] | 6510 nM [rising, single point]
Cc1cccc(OCCN2CCOCC2)c1C | -1.66 |  | 103 nM [rising, full curve, poor fit]
C=CCNC(=O)c1ccccc1NC(=O)c1cccc2ccccc12 | 45.8 | 184 nM [rising, partial curve, poor fit] | 3260 nM [rising, partial curve, poor fit]
Cc1cc(C(=O)N2CCOCC2)c(C)o1 | -5.73 | 6.51 nM [falling, full curve, poor fit] | 580 nM [falling, single point]
Nc1nnc(SCC(=O)OCC(=O)NC23CC4CC(CC(C4)C2)C3)s1 | 6.91 | 6510 nM [falling, partial curve, poor fit] | 6510 nM [falling, partial curve, poor fit]
O=C(O)CSc1nnc(-c2ccc3c(c2)OCO3)n1-c1ccccc1 | 4.14 |  | 
CCN(CC)S(=O)(=O)c1ccc(C(=O)NCC(=O)NC2CC2)cc1 | -0.858 |  | 20600 nM [falling, partial curve, poor fit]
CCCNC(=O)C(Cc1ccc(OC)cc1)NC(=O)c1ccc(Cl)cc1 (configuration not stated) | -50.3 | 16400 nM [falling, single point] | 20600 nM [falling, single point]
COc1ccccc1OCC(=O)N(Cc1nnc(-c2ccccc2Cl)o1)C1CC1 | 19.2 |  | 29100 nM [falling, single point]
CCc1cccc2c(C(=O)COC(=O)c3ccc([N+](=O)[O-])s3)c[nH]c12 | -1.7 |  | 20600 nM [falling, partial curve]
O=C(C1=C(O)C(=O)N(CCN2CCOCC2)C1c1cccc(O)c1)c1cc2ccccc2o1 (configuration not stated) | 21.8 |  | 23100 nM [rising, single point]
Cc1cc(C=O)c(C)n1-c1cc(C(=O)O)cc(C(=O)O)c1 | 12.4 |  | 
Cc1ccc(S(=O)(=O)Nc2ccc3c(c2)n(C)c(=O)n3C)c(C)c1 | -10.8 |  | 
Cc1cc(C(=O)OCC(=O)NC(C)c2ccccc2)c(C)o1 (configuration not stated) | 132 | 4610 nM [rising, full curve] | 4110 nM [rising, partial curve]
CCOc1cc(C(=S)N2CCOCC2)ccc1OC | -21.6 |  | 16400 nM [falling, partial curve]

Some values from the results shown.
cell number change [%], Cc1ccc(S(=O)(=O)Nc2ccc3c(c2)n(C)c(=O)n3C)c(C)c1 reads -10.8
AC50 [2], Cc1cc(C(=O)N2CCOCC2)c(C)o1 reads 580 nM [falling, single point]

Additional records:

Compound | cell number change [%] | AC50 [1] | AC50 [2]
COc1ccc(CCNC(=O)C2CCC(CNS(=O)(=O)c3ccc(F)cc3)CC2)cc1OC (configuration not stated) | 20.7 | 4.61 nM [falling, full curve, poor fit] | 
S=C1NC[C@H](CC2CCCCC2)N1CCc1cccc2ccccc12 | 19.1 |  | 326 nM [rising, partial curve, poor fit]
Cc1ccc(S(=O)(=O)Nc2ccc3cn[nH]c3c2)c(C)c1 | -4.92 | 4610 nM [rising, partial curve, poor fit] | 6510 nM [rising, single point]
CCOc1cc(/C=N/NC(=O)c2ccncc2)cc(Cl)c1OS(C)(=O)=O | 2.69 |  | 
O=C(c1cccs1)N1CCC(c2nc3c(nnn3Cc3c(Cl)cccc3Cl)c(=O)[nH]2)CC1 | 5.13 |  | 580 nM [falling, partial curve]
COc1ccc(C)cc1NC(=S)N1CC(C)OC(C)C1 (configuration not stated) | 4.86 |  | 
COc1ccc(CNC(=O)C2CCN(S(=O)(=O)c3ccc4c(c3)C(C)(C)C(=O)N4C)CC2)cc1 | -1.2 |  | 
O=C(Cn1c(NCCO)nc2ccccc21)Nc1ccc2c(c1)OCCCO2 | 21 |  | 
Cc1cc(C)nc(N/N=C/c2ccccc2OCc2ccc(Cl)cc2)n1 |  |  | 146 nM [rising, full curve, poor fit]
O=C(COc1ccccc1)NCC(=O)Nc1ccncc1 | 112 |  | 29100 nM [rising, single point]
Cc1ccccc1CC(=O)NCCN1CCOCC1 | 1.66 |  | 580 nM [rising, single point]
CCOc1ccc(N(CC(=O)NCc2ccccc2)S(C)(=O)=O)cc1 | 2.74 | 731 nM [falling, full curve] | 164 nM [falling, partial curve]
CC1Cc2ccccc2N1C(=O)COc1ccc2c(c1)OCO2 (configuration not stated) | 45.8 | 4.61 nM [rising, full curve, poor fit] | 4.61 nM [rising, full curve, poor fit]
CC(NC(=O)CCNS(=O)(=O)c1cccc2nonc12)c1ccccc1 (configuration not stated) | 17.9 |  | 1030 nM [rising, full curve]
O=C(c1ccco1)N1CCN(C(=O)c2ccccc2[N+](=O)[O-])CC1 | -46.5 | 116 nM [falling, full curve] | 
CC1CCCC(C)N1C(=O)COC(=O)Cn1cnc2c1c(=O)n(C)c(=O)n2C (configuration not stated) | 8.08 |  | 
Cc1ccc(S(=O)(=O)N2CCN(S(=O)(=O)c3c(C)n[nH]c3C)CC2)cc1C | -28.1 |  | 
O=C(CS(=O)(=O)c1ccccc1)Nc1nc2ccccc2s1 | -3.69 |  | 1460 nM [rising, full curve, poor fit]
Cn1c(Cn2cnc3ccccc32)nnc1SCc1ccccc1 | -49.5 | 29100 nM [falling, single point] | 29100 nM [rising, single point]
